In PubChem BioAssay (EPA / NIEHS):
“And” between values parts separate entries of the source, which are not always exact repeats. Equal values may be shown once. Inconclusive means that the source gave no clear call. Such entries were picked first, then a sample of the others. For some assays here: Potencies beside an inconclusive call are fits to weak or partial responses and may not hold up. Some structures have more than one record in an assay (separate samples or runs), and their calls can disagree. The source made the active and inactive calls. The calls were made as follows: active = hit-call score of the fitted dose curve at least 0.9, where 1 is the maximum; inconclusive = response in the unintended direction; inactive = score below 0.9.

Chains of the proteins cited; added tags and fusions are not shown. Lines headed by an entry give the natural chain unless they say otherwise; changes in a name come on top.
UniProt P04637, whole entry, looked up: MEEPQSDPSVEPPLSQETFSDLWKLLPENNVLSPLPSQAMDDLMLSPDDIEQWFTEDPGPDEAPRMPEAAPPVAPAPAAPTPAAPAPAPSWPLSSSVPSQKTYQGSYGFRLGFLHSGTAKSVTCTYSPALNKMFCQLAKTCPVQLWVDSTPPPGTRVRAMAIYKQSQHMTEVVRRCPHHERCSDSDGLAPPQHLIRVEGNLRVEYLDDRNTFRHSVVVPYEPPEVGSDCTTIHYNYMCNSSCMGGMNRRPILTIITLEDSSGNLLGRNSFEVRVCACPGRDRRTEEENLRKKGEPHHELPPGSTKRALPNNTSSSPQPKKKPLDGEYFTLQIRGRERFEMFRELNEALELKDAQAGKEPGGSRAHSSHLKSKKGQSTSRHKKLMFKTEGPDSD
UniProt O75469: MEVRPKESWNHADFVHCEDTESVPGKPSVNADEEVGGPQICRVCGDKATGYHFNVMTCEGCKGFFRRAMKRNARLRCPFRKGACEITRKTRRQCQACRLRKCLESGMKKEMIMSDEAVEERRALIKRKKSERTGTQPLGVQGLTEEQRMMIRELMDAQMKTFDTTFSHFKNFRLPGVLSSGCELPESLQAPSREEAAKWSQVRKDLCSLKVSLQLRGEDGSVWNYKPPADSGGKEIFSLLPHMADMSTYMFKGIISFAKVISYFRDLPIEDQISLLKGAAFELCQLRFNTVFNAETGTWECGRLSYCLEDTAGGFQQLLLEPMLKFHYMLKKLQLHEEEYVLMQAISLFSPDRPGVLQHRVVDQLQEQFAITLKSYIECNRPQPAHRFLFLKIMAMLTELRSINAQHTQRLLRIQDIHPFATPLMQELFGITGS
UniProt P03372, whole entry, looked up: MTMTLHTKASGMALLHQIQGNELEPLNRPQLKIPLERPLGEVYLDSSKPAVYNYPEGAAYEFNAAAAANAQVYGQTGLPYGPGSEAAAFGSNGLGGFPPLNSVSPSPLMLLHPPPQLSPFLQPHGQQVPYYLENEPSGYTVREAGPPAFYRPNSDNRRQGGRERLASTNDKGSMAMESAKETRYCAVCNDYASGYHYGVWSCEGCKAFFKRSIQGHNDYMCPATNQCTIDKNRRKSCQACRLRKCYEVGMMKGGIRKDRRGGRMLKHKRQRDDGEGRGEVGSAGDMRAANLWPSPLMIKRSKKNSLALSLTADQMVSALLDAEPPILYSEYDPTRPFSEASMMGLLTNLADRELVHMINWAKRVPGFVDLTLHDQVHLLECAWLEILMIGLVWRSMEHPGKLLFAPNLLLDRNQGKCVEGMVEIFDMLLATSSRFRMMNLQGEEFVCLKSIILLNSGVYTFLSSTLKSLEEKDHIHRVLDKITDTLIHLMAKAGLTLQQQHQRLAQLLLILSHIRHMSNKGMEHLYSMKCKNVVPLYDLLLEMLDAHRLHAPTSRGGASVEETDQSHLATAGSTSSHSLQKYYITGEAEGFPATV
UniProt P19785, whole entry, looked up: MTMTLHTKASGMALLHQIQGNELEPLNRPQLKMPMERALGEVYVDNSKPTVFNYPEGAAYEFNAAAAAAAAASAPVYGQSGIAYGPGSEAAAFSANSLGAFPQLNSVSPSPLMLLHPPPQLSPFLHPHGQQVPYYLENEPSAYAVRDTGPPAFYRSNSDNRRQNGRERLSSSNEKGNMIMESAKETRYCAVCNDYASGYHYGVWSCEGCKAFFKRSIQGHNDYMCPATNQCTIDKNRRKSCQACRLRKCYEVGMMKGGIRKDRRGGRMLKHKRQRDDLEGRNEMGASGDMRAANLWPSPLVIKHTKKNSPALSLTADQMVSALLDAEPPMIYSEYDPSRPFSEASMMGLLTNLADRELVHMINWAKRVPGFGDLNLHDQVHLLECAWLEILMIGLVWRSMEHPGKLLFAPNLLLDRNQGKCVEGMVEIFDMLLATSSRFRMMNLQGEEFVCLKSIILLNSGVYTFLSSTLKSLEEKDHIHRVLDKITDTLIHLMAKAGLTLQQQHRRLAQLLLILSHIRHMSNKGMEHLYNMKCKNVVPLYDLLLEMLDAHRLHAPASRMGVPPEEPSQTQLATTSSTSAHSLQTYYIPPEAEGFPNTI
UniProt Q96RI1: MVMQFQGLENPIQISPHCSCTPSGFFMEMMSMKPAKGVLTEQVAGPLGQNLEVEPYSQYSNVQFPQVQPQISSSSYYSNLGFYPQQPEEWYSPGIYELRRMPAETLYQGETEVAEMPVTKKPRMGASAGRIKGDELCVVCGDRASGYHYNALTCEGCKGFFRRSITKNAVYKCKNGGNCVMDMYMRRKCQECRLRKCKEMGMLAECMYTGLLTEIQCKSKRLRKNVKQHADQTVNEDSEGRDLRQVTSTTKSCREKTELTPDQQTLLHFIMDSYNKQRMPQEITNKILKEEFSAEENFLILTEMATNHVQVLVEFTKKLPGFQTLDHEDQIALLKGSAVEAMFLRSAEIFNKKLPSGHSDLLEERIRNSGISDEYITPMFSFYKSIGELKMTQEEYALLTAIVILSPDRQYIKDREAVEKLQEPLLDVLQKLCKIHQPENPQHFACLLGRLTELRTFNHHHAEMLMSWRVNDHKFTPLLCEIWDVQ
UniProt Q03181: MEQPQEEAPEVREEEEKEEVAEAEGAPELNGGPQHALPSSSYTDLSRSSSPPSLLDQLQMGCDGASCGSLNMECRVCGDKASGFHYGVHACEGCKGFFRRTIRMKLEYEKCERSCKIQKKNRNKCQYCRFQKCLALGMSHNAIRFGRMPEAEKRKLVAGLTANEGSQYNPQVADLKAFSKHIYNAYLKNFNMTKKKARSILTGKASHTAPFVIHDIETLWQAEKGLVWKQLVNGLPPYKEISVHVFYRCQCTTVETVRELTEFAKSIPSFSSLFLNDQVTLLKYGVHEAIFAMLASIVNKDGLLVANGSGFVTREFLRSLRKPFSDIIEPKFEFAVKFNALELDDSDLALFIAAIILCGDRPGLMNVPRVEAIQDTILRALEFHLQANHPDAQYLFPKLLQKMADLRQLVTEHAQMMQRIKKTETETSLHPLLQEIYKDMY
UniProt P19793: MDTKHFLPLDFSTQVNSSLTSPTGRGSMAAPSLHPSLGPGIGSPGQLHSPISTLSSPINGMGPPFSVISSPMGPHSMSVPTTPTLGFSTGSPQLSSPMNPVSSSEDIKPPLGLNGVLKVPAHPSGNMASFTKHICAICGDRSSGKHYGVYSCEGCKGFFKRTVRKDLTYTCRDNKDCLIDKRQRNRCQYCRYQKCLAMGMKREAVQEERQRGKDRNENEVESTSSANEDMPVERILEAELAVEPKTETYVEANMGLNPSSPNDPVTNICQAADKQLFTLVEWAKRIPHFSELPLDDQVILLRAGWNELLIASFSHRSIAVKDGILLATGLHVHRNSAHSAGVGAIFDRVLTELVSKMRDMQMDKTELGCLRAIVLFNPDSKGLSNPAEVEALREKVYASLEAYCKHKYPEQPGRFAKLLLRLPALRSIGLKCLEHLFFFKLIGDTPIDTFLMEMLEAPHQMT
UniProt P11473: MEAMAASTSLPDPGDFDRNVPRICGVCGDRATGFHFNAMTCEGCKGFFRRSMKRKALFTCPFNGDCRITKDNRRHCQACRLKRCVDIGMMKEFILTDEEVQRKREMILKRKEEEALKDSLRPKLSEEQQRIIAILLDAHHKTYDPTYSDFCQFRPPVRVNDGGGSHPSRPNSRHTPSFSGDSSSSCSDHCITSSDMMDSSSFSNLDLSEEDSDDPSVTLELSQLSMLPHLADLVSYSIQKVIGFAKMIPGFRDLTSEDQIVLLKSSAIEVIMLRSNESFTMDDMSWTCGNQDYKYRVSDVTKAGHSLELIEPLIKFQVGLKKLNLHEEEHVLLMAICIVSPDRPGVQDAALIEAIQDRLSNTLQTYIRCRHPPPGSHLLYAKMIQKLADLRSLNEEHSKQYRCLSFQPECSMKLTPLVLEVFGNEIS

Legend:
[1] = ATG_M_32_TRANS: Attagene TRANS-FACTORIAL HepG2 Assay for M32 Transcription Factor (Internal Marker) (AID 2282984); conditions: HepG2 Attagene TRANS M32 internal marker reporter;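 as to outcome: transcript level of a background control reporter unit measured by RT-PCR and capillary electrophoresis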
Outline: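 Cell-based TRANS-format assay in HepG2: exogenous chimeric GAL4 reporter units transiently expressed, compounds applied 24 h. Reporter mRNA detected by RT-PCR plus capillary electrophoresis; this readout is an internal background marker.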

[2] = biological target: Cellular tumor antigen p53 (Homo sapiens) (UniProt P04637); assay: TOX21_p53_BLA_p2_ratio: Tox21 HCT-116 p53 Agonism Beta-lactamase Assay, Ratio, Phase 2 (AID 2283592)
Outline: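 DMSO-normalized, positive-direction endpoint derived from the 460 nm/530 nm FRET ratio in HCT116 p53 beta-lactamase reporter cells exposed 16 h at 37C and loaded with CCF4-AM for 2 h.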

[3] = biological target: Cellular tumor antigen p53 (Homo sapiens) (UniProt P04637); assay: TOX21_p53_BLA_p3_ratio: Tox21 HCT-116 p53 Agonism Beta-lactamase Assay, Ratio, Phase 3 (AID 2283596)
Outline: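 Cells were seeded at 4000/well, rested 5 h at 37C, then dosed with DMSO compound solutions (217-fold dilution) for 16 h. CCF4-AM substrate was loaded for 2 h at room temperature, and the 460/530 nm emission ratio was fitted for gain of signal versus DMSO.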

[4] = TOX21_p53_BLA_p5_viability: Viability Assessment in the Tox21 HCT-116 p53 Agonism Beta-lactamase Assay, Phase 5 (AID 2283600)
Outline: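 Here cell health was gauged by ATP levels in wells holding 4000 cells, each treated 16 h with DMSO-delivered compounds at 217-fold dilution; reduced luminescence marked toxicity.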

[5] = biological target: Cellular tumor antigen p53 (Homo sapiens) (UniProt P04637); assay: TOX21_p53_BLA_p4_ratio: Tox21 HCT-116 p53 Agonism Beta-lactamase Assay, Ratio, Phase 4 (AID 2283601)
Outline: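 Signal is the blue/green (460nm/530nm) ratio of cleaved versus uncleaved CCF4-AM substrate, read after 2 h substrate loading. Cells were HCT116 carrying the p53-responsive beta-lactamase reporter, dosed 16 h at 37C, 5% CO2; CellTiter-Glo measured in parallel.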

[6] = ACEA_ER_AUC_viability: ACEA Biosciences xCELLigence Real-Time Cell Analysis on Estrogen Receptor Agonism for Viability (AID 2283782);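 also: hit means loss of impedance signal meaning reduced cell growth or viability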
Outline: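 Viability endpoint: reduced impedance area under the curve relative to DMSO, recorded by real-time electrode sensing over ~80 h of continuous exposure. Duplicate plates of T47D in hormone-depleted medium; eight concentrations, 1:4 dilutions, 100 uM maximum.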

[7] = biological target: Nuclear receptor subfamily 1 group I member 2 (Homo sapiens) (UniProt O75469); assay: ATG_PXR_TRANS: Attagene TRANS-FACTORIAL HepG2 Assay for human Pregnane X Receptor (PXR) (AID 2283008)
Outline: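 HepG2 transfected (FuGene 6) with GAL4-UAS reporter units + PXR-Gal4 chimera; dosed 24 h. Total RNA → oligo(dT) RT → PCR → 6-FAM primer extension → HpaI cut → CE. Gain-of-signal vs DMSO.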

[8] = biological target: Estrogen receptor (Homo sapiens) (UniProt P03372); assay: NVS_NR_hER: NovaScreen (NVS) Nuclear Receptor Binding Assay for human Estrogen Receptor (ER) (AID 2283348)
Outline: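 Cell-free MCF7-derived ER preparation, specific radioligand displaced by test compound, read by scintillation counting 18 h post-dosing. Duplicate single-point 25 uM screen, then concentration-response confirmation; DMSO baseline.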

[9] = biological target: mouse Estrogen Receptor alpha (Era), Esr1 (gene 13982) (UniProt P19785); assay: NVS_NR_mERa: NovaScreen (NVS) Nuclear Receptor Binding Assay for mouse Estrogen Receptor alpha (Era) (AID 2283378);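 also: hit means loss of bound radioligand signal relative to DMSO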
Outline: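 Measurements come from scintillation counting after filtration, taken 18 hours after chemicals were added to a cell-free mouse Era preparation with radioligand. Screening was duplicate at 25 uM, with concurrent positive and negative controls and confirmatory concentration series for actives.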

[10] = ATG_XTT_Cytotoxicity: Cytotoxicity Assessment in the Attagene TRANS-FACTORIAL HepG2 Assay (AID 2283584);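 also: XTT signal for cell number as viability in transfected HepG2 cells; cells exposed to compound for 24 h before reading; active means loss of viability signal versus DMSO baseline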
Outline: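 24 h chemical exposure of reporter-transfected HepG2; XTT signal loss vs DMSO indicates cytotoxicity.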

[11] = biological target: Cellular tumor antigen p53 (Homo sapiens) (UniProt P04637); assay: TOX21_p53_BLA_p5_ratio: Tox21 HCT-116 p53 Agonism Beta-lactamase Assay, Ratio, Phase 5 (AID 2283599)
Outline: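 Beta-lactamase reporter ratio (blue 460 nm over green 530 nm, 405 nm excitation) after 2 h CCF4-AM loading, in HCT-116 cells exposed 16 h at 37 C to compounds pinned at 217-fold dilution. Increases relative to DMSO baseline scored.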

[12] = ATG_M_06_TRANS: Attagene TRANS-FACTORIAL HepG2 Assay for M06 Transcription Factor (Internal Marker) (AID 2282983); conditions: HepG2 Attagene TRANS M06 internal marker reporter;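 as to AC50: potency for rise in reporter mRNA above DMSO baseline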;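 as to outcome: reporter transcript level by RT-PCR then capillary electrophoresis fluorescence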
Outline: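 Multi-reporter-transfected HepG2, 24 h treatment; reporter transcripts quantified via RT-PCR, primer-extension labelling and CE. DMSO-normalized gain-of-signal fit.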

[13] = biological target: Bile acid receptor (Homo sapiens) (UniProt Q96RI1); assay: ATG_FXR_TRANS: Attagene TRANS-FACTORIAL HepG2 Assay for Farnesoid X Receptor (FXR) (AID 2282979); conditions: HepG2 Attagene TRANS FXR-GAL4 reporter transcription;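 also: hits raise reporter mRNA above DMSO so AC50 marks FXR activation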
Outline: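 After 24 h chemical treatment of transfected HepG2 cells, GAL4-UAS reporter transcripts driven by an exogenous FXR-GAL4 fusion were measured by RT-PCR and capillary electrophoresis. Increases over DMSO were fitted.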

[14] = biological target: human Peroxisome Proliferator-activated Receptor delta (PPARd), PPARD (gene 5467) (UniProt Q03181); assay: ATG_PPARd_TRANS: Attagene TRANS-FACTORIAL HepG2 Assay for human Peroxisome Proliferator-activated Receptor delta (PPARd) (AID 2283002)
Outline: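 Transient HepG2 transfection (multiple GAL4-UAS RTUs, chimeric receptor-Gal4); 24 h dosing; total RNA → oligo(dT) RT → PCR → 6-FAM primer extension → HpaI cut → CE. Positive direction vs DMSO.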

[15] = biological target: Retinoic acid receptor RXR-alpha (Homo sapiens) (UniProt P19793); assay: ATG_RXRa_TRANS: Attagene TRANS-FACTORIAL HepG2 Assay for human Retinoid X Receptor alpha (RXRa) (AID 2283012)
Outline: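 Chimeric NR-GAL4 trans-activation in HepG2, 24 h treatment; reporter transcripts quantified by fluorescence on capillary electrophoresis, analysed for upward change from DMSO.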

[16] = biological target: human Vitamin D Receptor (VDR), VDR (gene 7421) (UniProt P11473); assay: ATG_VDR_TRANS: Attagene TRANS-FACTORIAL HepG2 Assay for human Vitamin D Receptor (VDR) (AID 2283022)
Outline: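 Multiplexed TRANS reporter in HepG2; 24 h treatment; reporter mRNA by RT-PCR plus capillary electrophoresis; upregulation scored relative to DMSO.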

[17] = biological target: Retinoic acid receptor RXR-alpha (Homo sapiens) (UniProt P19793); assay: OT_NURR1_NURR1RXRa_0480: Odyssey Thera (OT) 8-hour HEK293T Protein Complementation Assay for Nurr1/retinoid X receptor (RXR) (AID 2283385)
Outline: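 Gain in fluorescent complementation signal over DMSO, measured 8 hours after chemical dosing of human kidney HEK293T cells, indicated enhanced Nurr1–RXRα association.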

[18] = biological target: Retinoic acid receptor RXR-alpha (Homo sapiens) (UniProt P19793); assay: OT_NURR1_NURR1RXRa_1440: Odyssey Thera (OT) 24-hour HEK293T Protein Complementation Assay for Nurr1/retinoid X receptor (RXR) (AID 2283386)
Outline: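 Cell-based binding reporter: HEK293T cells, 24 h exposure, fluorescence-detected fragment complementation, DMSO as baseline.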

SMILES: Cc1ccncc1
- AC50 [1]: inconclusive: 178 µM
- AC50 [2]: inconclusive: 47.6 µM
- outcome [3]: inactive
- outcome [4]: inactive
- AC50 [5]: inconclusive: 46.1 µM
- AC50 [6]: inconclusive: 29.8 µM

SMILES: O=C(c1ccccc1)c1ccc(O)c(O)c1O
- AC50 [7]: active: 24 µM
- outcome [8]: inactive
- AC50 [9]: inconclusive: 2.05 µM
- AC50 [10]: inconclusive: 100 µM
- outcome [11]: inactive
- AC50 [4]: inconclusive: 46.1 µM and inconclusive: 3.53 µM
- AC50 [5]: inconclusive: 46.1 µM

SMILES: CCc1ccc(C(c2ccc(CC)cc2)C(Cl)Cl)cc1
- outcome [4]: inactive

SMILES: Cc1ncc([C@@H](CCCCCCc2ccc3c(n2)NCCC3)CC(=O)O)cn1
- AC50 [12]: inconclusive: 100 µM

SMILES: COc1cc2c(c(OC)c1OC)-c1ccc(OC)c(=O)cc1[C@@H](NC(C)=O)CC2
- AC50 [1]: inconclusive: 100 µM
- outcome [7]: inactive
- AC50 [17]: active: 8.86 µM
- AC50 [18]: active: 10.6 µM
- AC50 [6]: active: 0.00238 µM

SMILES: CC=C(C)C(C)=O
- outcome [14]: inactive
- AC50 [15]: active: 100 µM
- outcome [6]: inactive

SMILES: C(=CC=Nc1ccccc1)C=CNc1ccccc1
- outcome [13]: inactive
- outcome [15]: inactive
- outcome [16]: inactive
- outcome [3]: inactive
- outcome [4]: inactive
- AC50 [5]: inconclusive: 46.1 µM

SMILES: C[Si]1(C)O[Si](C)(C)O[Si](C)(C)O[Si](C)(C)O[Si](C)(C)O1
- outcome [1]: inactive
- AC50 [16]: inconclusive: 0.703 µM
- AC50 [17]: inconclusive: 50 µM
- AC50 [3]: inconclusive: 46.1 µM
- AC50 [11]: inconclusive: 46.1 µM
- outcome [4]: inactive
- AC50 [6]: inconclusive: 9.92 µM

SMILES: COC(=O)CCCCC(=O)OC
- outcome [1]: inactive
- outcome [17]: inactive
- AC50 [2]: inconclusive: 46.3 µM
- AC50 [3]: inconclusive: 46.3 µM
- AC50 [11]: inconclusive: 46.3 µM
- AC50 [4]: inconclusive: 46.1 µM
- AC50 [6]: inconclusive: 0.0617 µM
